This assay concerns the target V5-DNAJB6b (human) (UniProt O75190). The assay can be described thus: co-IP; SH-SY5Y cells co-expressing tau P301L and V5-DNAJB6a, V5-DNAJB6b or V5-DNAJB6b H31Q for 48 h; precipitated with anti-V5 antibody (2 ug/ml lysate, overnight, 4 C) and protein G magnetic beads; IP buffer 100 mM NaCl, 0.5% Triton X-100, 1 mM EDTA, 50 mM Tris-HCl pH 7.5; immunoblot. (In general: Immunoblotting shows a protein as a band on a membrane.)

Protein sequences, listed by entry. Tags and fused reporters are not part of them. Lines headed by an entry give the natural chain unless they say otherwise; changes in a name come on top. Chains listed by the source or under a name are the forms on record and can include a tag or linker.
V5-DNAJB6b (O75190, form named): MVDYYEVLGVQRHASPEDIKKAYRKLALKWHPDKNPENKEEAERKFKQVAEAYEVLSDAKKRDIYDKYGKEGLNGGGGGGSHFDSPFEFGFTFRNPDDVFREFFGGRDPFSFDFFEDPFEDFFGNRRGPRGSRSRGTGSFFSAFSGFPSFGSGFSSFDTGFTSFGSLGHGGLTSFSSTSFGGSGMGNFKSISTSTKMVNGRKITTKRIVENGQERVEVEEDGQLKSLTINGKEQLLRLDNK
UniProt P11142: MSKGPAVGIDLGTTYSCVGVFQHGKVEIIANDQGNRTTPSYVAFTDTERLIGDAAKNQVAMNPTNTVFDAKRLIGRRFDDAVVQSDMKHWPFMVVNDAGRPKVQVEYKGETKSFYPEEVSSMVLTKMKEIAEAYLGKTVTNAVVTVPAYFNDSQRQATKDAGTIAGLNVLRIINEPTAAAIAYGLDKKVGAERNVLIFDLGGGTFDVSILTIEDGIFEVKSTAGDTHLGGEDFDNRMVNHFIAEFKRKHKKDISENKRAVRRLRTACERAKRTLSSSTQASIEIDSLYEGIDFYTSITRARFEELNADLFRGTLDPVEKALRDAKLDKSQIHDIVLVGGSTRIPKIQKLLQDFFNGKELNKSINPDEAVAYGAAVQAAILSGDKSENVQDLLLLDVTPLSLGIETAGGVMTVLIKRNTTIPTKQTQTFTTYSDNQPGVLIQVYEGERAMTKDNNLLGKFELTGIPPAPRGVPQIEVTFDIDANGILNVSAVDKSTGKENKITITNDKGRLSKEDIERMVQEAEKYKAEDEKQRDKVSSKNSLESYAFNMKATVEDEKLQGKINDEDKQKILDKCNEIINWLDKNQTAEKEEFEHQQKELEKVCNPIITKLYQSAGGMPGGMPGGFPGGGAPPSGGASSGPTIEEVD

These are yes or no findings as the source states them, for the method shown. In cells and extracts the contact can be indirect. Some entries that bind do so weakly or less than the wild type.

In the case of HSPA8 (from UniProt P11142 1-646), the binding entry is recorded as “binds”.

The record behind these values is article PMC10729500.
